Source: the supplement of paper PMC10849652
Some of the results follow.

Sequences of proteins named here, by UniProt entry; tags and fusion partners are left off. A change or cut given only in a name is not applied to a line headed by its entry.
UniProt Q68D91: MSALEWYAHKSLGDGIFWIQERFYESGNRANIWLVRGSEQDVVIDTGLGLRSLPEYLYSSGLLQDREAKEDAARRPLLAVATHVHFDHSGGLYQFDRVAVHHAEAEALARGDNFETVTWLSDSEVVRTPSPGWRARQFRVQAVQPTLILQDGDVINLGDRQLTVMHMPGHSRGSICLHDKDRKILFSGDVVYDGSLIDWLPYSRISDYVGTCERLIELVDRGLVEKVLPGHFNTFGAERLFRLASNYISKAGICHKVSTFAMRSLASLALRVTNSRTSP
UniProt Q9BTT4: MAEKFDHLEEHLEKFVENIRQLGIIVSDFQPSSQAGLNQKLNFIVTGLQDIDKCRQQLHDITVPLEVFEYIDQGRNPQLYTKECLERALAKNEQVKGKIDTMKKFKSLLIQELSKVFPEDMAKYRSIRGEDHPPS
UniProt Q8IVS2: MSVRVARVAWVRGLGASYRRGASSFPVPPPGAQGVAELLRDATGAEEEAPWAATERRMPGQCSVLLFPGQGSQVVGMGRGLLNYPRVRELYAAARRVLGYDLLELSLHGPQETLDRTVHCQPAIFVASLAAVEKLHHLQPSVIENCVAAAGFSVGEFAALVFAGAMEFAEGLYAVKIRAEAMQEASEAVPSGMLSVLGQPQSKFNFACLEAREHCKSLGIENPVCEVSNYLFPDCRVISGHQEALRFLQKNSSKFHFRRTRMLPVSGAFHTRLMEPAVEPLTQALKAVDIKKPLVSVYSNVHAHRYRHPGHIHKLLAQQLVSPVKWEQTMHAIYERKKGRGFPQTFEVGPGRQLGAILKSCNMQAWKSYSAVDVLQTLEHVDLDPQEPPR
UniProt Q14703: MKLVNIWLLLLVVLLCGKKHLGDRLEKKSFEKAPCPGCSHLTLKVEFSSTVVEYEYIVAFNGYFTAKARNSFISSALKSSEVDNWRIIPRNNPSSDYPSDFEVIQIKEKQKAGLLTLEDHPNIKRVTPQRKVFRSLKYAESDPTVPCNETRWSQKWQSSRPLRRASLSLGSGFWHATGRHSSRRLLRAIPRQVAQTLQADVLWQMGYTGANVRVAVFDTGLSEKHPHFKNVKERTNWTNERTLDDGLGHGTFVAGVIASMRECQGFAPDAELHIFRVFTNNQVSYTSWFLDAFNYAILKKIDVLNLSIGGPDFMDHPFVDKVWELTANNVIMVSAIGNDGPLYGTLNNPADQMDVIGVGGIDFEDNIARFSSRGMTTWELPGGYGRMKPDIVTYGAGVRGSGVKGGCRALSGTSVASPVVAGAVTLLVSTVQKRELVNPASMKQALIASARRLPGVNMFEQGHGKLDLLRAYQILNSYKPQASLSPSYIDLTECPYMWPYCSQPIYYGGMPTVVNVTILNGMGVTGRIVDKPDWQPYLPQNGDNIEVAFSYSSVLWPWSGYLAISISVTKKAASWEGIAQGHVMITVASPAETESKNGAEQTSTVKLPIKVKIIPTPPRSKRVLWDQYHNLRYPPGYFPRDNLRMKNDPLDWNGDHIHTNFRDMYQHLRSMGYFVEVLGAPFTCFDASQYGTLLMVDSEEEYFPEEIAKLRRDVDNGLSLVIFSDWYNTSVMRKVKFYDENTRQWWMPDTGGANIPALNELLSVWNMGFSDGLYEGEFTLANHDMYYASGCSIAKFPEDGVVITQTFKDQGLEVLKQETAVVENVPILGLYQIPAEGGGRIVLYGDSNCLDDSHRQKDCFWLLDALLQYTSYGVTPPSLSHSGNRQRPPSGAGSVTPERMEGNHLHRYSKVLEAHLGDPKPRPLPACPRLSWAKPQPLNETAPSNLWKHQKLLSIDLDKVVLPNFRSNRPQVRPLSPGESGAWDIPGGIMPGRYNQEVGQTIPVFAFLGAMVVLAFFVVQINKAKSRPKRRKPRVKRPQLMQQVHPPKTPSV
UniProt Q86YT6, whole entry, looked up: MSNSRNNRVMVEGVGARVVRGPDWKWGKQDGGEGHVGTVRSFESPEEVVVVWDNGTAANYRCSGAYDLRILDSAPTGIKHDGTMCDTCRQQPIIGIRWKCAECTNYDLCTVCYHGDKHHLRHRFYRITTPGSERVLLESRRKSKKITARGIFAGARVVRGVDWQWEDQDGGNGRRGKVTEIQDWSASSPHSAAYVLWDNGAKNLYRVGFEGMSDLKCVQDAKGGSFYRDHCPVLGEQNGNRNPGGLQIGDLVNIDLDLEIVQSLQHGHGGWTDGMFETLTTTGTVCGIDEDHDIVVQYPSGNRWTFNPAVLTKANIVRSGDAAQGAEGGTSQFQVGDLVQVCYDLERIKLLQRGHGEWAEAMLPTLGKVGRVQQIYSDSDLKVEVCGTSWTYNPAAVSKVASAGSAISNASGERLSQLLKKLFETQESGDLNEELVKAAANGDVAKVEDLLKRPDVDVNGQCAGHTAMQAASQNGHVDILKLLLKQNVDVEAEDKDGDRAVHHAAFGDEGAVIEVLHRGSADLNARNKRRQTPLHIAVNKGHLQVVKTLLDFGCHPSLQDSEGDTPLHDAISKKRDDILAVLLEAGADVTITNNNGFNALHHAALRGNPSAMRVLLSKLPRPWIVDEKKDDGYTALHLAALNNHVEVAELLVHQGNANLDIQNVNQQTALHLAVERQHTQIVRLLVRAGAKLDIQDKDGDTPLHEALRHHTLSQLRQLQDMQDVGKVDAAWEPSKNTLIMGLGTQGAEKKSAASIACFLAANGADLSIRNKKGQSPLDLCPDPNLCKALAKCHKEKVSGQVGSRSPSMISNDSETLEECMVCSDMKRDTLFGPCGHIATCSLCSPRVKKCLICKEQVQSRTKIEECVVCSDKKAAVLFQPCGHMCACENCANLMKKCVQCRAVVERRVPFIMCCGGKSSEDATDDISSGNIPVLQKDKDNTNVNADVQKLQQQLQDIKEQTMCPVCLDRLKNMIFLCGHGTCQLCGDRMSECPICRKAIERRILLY
UniProt Q86U44, whole entry, looked up: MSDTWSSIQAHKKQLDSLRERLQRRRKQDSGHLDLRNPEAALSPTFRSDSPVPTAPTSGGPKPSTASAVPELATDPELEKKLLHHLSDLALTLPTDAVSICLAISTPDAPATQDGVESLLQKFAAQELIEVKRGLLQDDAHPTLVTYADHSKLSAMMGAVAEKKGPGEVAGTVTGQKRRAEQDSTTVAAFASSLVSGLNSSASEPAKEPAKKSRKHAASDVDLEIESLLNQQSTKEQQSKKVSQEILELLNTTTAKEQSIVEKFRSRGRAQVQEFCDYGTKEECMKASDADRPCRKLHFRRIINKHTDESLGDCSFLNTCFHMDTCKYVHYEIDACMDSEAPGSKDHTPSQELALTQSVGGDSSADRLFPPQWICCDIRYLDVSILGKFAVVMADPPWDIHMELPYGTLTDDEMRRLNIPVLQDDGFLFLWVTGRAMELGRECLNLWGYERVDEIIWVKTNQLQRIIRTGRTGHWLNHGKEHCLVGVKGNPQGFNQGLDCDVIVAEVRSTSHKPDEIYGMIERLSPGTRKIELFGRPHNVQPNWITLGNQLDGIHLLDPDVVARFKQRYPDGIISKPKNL
UniProt P55081: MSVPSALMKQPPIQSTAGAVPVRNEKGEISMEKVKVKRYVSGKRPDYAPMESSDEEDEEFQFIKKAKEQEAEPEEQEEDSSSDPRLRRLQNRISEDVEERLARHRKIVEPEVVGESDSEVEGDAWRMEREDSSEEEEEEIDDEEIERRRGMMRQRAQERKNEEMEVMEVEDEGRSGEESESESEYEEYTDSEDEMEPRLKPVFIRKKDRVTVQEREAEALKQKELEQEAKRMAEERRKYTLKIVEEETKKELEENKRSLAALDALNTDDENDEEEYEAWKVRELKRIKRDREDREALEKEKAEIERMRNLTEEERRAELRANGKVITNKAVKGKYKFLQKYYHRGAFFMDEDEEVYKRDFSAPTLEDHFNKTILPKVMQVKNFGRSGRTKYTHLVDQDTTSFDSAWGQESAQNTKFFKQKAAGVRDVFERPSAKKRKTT
UniProt P33991: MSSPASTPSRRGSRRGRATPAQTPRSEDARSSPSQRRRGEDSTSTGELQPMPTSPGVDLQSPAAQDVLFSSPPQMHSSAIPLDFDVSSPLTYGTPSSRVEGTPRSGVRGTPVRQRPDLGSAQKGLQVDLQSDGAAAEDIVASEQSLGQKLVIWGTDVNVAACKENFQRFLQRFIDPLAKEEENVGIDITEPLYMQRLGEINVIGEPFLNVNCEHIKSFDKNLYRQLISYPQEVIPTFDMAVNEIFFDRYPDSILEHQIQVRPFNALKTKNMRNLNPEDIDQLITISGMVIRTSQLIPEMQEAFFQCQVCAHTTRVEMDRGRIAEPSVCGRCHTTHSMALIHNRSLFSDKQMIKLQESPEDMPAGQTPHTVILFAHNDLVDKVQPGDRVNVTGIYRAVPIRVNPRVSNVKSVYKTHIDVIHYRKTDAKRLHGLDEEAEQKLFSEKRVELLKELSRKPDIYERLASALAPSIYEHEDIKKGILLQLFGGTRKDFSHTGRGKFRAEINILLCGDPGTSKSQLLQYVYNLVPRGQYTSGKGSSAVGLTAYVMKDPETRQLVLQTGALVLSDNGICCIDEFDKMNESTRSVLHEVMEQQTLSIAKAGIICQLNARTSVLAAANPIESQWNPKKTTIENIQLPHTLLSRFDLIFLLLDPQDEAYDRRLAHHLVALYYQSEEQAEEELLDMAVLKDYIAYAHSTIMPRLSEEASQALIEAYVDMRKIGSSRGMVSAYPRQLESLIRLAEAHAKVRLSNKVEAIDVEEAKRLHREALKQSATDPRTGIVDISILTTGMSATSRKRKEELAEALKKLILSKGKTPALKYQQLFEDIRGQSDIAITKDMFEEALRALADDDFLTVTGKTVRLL
UniProt Q9NWA0: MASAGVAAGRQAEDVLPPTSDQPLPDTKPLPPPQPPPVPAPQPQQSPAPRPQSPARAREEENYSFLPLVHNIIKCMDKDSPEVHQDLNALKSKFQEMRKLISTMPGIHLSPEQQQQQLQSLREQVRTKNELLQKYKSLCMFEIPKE
UniProt Q9H7H0: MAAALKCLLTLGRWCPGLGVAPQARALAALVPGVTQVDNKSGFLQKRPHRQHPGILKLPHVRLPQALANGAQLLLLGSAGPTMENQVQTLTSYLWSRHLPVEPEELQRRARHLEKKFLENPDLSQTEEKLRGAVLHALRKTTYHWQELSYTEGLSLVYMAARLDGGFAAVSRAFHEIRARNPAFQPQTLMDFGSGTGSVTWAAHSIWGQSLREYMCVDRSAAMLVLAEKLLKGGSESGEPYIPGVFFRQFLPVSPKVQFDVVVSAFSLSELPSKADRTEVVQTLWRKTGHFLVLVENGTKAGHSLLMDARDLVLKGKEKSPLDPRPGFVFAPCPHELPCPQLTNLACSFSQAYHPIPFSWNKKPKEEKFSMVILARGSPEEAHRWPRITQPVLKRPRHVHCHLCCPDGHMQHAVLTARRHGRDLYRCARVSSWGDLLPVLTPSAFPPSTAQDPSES
UniProt Q9UQ53: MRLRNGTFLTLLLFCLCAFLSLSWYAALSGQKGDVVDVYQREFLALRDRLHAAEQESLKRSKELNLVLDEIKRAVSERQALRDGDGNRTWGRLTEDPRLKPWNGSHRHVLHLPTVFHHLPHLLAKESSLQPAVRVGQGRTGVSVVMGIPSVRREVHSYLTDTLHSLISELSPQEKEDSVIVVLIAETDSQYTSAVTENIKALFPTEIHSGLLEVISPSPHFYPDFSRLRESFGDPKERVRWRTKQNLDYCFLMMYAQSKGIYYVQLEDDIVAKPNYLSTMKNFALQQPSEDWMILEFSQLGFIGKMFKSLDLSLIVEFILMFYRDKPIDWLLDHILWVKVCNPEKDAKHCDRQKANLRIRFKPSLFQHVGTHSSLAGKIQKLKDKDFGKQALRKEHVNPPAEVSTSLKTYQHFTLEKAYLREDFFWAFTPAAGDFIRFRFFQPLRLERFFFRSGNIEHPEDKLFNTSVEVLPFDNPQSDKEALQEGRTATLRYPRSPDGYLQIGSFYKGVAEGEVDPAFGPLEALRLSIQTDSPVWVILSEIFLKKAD
UniProt P26572: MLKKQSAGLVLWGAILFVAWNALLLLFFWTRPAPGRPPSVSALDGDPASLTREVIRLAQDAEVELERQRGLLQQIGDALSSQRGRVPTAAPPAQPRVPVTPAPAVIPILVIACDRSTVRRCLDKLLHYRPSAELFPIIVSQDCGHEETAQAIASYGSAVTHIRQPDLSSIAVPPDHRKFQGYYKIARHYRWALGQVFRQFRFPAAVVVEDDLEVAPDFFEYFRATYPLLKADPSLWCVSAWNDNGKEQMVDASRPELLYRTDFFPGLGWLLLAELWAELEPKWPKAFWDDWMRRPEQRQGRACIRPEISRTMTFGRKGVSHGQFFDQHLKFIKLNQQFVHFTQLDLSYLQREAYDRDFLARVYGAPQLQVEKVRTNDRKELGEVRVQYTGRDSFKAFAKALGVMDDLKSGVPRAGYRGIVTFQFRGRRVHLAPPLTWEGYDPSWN
UniProt Q9BUT9: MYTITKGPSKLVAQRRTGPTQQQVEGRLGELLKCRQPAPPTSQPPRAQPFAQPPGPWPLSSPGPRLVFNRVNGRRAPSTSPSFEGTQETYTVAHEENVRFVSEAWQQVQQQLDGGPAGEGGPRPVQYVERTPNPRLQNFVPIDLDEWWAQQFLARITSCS

compound: c1cn2cc(-c3ccc4cn[nH]c4c3)nc(Nc3ccc(N4CCOCC4)cc3)c2n1 [entospletinib]; experiment: log2 fold change, soluble protein after heating vs DMSO (PISA); higher = thermal stabilisation; K562 cells, 10 uM, 30 min; active = over 0.2 and 3.5 SD of the protein, either way, in both replicates (recomputed)
Method in brief: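 K562 cells at 2×10^6 cells/mL were given 10 μM compound for 30 min. Aliquots then went through 3 min of heating across 48°C-58°C, were pooled, and were extracted in PBS with 0.5% NP-40 at 4°C, and the supernatant after 21,000xg for 90 min was quantified by TMTpro 16plex LC-MS/MS with channel sums equalised. Thermal stability relative to control samples, from duplicates, is given as log2 fold change.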

log2 fold change, inactive:
MBLAC2 (UniProt Q68D91) -0.017
MFSD14B (UniProt Q5SR56) -0.037
MED10 (UniProt Q9BTT4) -0.055
MCAT (UniProt Q8IVS2) -0.009
MBTPS1 (UniProt Q14703) -0.132
MBOAT1 (UniProt Q6ZNC8) -0.051
MIB1 (UniProt Q86YT6) 0.016
MGAT5 (UniProt Q09328) 0
METAP1 (UniProt P53582) 0.01
MEF2A (UniProt Q02078) -0.128
MED15 (UniProt Q96RN5) -0.045
METTL14 (UniProt Q9HCE5) 0.01
METTL3 (UniProt Q86U44) -0.011
MFAP1 (UniProt P55081) 0.048
MCM4 (UniProt P33991) -0.025
MED20 (UniProt Q9H944) -0.014
MFSD4B (UniProt Q5TF39) -0.096
MCM2 (UniProt P49736) -0.009
MED21 (UniProt Q13503) -0.004
MGST2 (UniProt Q99735) 0.017
MED24 (UniProt O75448) -0.02
MEGF8 (UniProt Q7Z7M0) 0.1
MED9 (UniProt Q9NWA0) 0.055
METTL17 isoform 3 (UniProt Q9H7H0) -0.093
MGAT4B isoform 3 (UniProt Q9UQ53) 0.006
MEAF6 isoform 3 (UniProt Q9HAF1) 0.004
MGAT1 (UniProt P26572) 0.017
MFSD10 (UniProt Q14728) 0.048
MEF2C isoform 2 (UniProt Q06413) -0.013
MCRIP2 (UniProt Q9BUT9) -0.011

Pulled one by one from above (two):
log2 fold change, inactive:
MGAT1 (UniProt P26572) 0.017
METTL17 isoform 3 (UniProt Q9H7H0) -0.093
